Measured values as given in PMC10988300.
Positions count from the first letter of the chain named. Numbers in names are those of the source. Results are given in words; binding and its absence hold for the method and conditions named. Binding seen in cells or lysates may run through a third protein. Some results given as binding are weak or reduced against the parent protein; the word gives no strength. For part of these data: Where a sequence is shown, tags or fusion partners need not be part of it. Each block holds one binder with its values, some of them ahead of it.

The chains behind the UniProt entries cited, without tags or fusion partners.
UniProt P09429: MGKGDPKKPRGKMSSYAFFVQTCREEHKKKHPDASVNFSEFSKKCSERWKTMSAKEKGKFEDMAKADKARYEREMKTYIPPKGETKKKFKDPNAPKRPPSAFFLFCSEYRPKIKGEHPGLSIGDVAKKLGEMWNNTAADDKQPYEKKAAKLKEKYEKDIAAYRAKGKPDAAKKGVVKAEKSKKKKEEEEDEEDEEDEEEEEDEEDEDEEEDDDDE

What was measured:
Flag-HMGB1 [1] = biological target: Flag-HMGB1 (UniProt P09429); experiment: co-IP; HEK-293T cells overexpressing USP15 and HMGB1; Co-IP RIPA buffer, Protein A/G PLUS-Agarose beads, 4 °C overnight, western blot
[2] = biological target: HMGB1, endogenous in PTC cells (human (endogenous in B-CPAP and KTC-1)) (UniProt P09429); experiment: co-IP; endogenous proteins of B-CPAP cells and KTC-1 cells; Co-IP RIPA buffer, Protein A/G PLUS-Agarose beads, 4 °C overnight, western blot
Flag-HMGB1 [3] = biological target: Flag-HMGB1 (UniProt P09429); experiment: co-IP; deubiquitination assay: HEK-293T cells co-transfected with HA-USP15 or HA-USP15 C298A, Flag-HMGB1 and His-Ub for 48 h; immunoprecipitated with an anti-Flag antibody, western blot

binding (Flag-HMGB1 [1]): binds
B1: HA-USP15 (enzyme, UniProt Q9Y4E8 1-981)
chain: MAEGGAADLDTQRSDIATLLKTSLRKGDTWYLVDSRWFKQWKKYVGFDSWDKYQMGDQNVYPGPIDNSGLLKDGDAQSLKEHLIDELDYILLPTEGWNKLVSWYTLMEGQEPIARKVVEQGMFVKHCKVEVYLTELKLCENGNMNNVVTRRFSKADTIDTIEKEIRKIFSIPDEKETRLWNKYMSNTFEPLNKPDSTIQDAGLYQGQVLVIEQKNEDGTWPRGPSTPKSPGASNFSTLPKISPSSLSNNYNNMNNRNVKNSNYCLPSYTAYKNYDYSEPGRNNEQPGLCGLSNLGNTCFMNSAIQCLSNTPPLTEYFLNDKYQEELNFDNPLGMRGEIAKSYAELIKQMWSGKFSYVTPRAFKTQVGRFAPQFSGYQQQDCQELLAFLLDGLHEDLNRIRKKPYIQLKDADGRPDKVVAEEAWENHLKRNDSIIVDIFHGLFKSTLVCPECAKISVTFDPFCYLTLPLPMKKERTLEVYLVRMDPLTKPMQYKVVVPKIGNILDLCTALSALSGIPADKMIVTDIYNHRFHRIFAMDENLSSIMERDDIYVFEININRTEDTEHVIIPVCLREKFRHSSYTHHTGSSLFGQPFLMAVPRNNTEDKLYNLLLLRMCRYVKISTETEETEGSLHCCKDQNINGNGPNGIHEEGSPSEMETDEPDDESSQDQELPSENENSQSEDSVGGDNDSENGLCTEDTCKGQLTGHKKRLFTFQFNNLGNTDINYIKDDTRHIRFDDRQLRLDERSFLALDWDPDLKKRYFDENAAEDFEKHESVEYKPPKKPFVKLKDCIELFTTKEKLGAEDPWYCPNCKEHQQATKKLDLWSLPPVLVVHLKRFSYSRYMRDKLDTLVDFPINDLDMSEFLINPNAGPCRYNLIAVSNHYGGMGGGHYTAFAKNKDDGKWYYFDDSSVSTASEDQIVSKAAYVLFYQRQDTFSGTGFFPLDRETKGASAATGIPLESDEDSNDNDNDIENENCMHTN

binding [2]: binds
B2: USP15, endogenous in PTC cells (enzyme, UniProt Q9Y4E8 1-981)
chain: B1 chain

binding (Flag-HMGB1 [3]): binds
B3: HA-USP15 C298A (enzyme, UniProt Q9Y4E8 1-981)
chain: B1 chain with C298A
